These results are taken from the supplement of paper PMC12067093, “Discovery and optimisation of a covalent ligand for TRIM25 and its application to targeted protein ubiquitination” (Chemical Science, 2025).

Some of the results follow.
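Further: competitive chemoproteomic profiling in live THP-1 cells with an iodoacetamide desthiobiotin (IA-DTB) probe, comparing probe-labelled peptide intensities in compound-treated cells against DMSO-treated controls.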

Compound in the assay: CC1Cc2ccccc2N1C(=O)C1CCCN(C1)C(=O)CCl (mixture of isomers) [TRIM25 ligand 11 (diastereomer mixture)]
Briefly: probe-labelled cysteine peptide fold change vs DMSO (competition) (log2 fold change); higher = less target engagement (more negative = stronger competition). Conditions: 50 µM; THP-1; incubation time: 4 h.
As for “HK3_P52790_409_AAQLCAAALAAVLSCLQHSR (UniProt P52790)”, the “probe-labelled cysteine peptide fold change” value was -0.184.

For the target “HK1_P19367_368+375_LGVEPSDDDCVSVQHVCTIVSFR (UniProt P19367)”, the “probe-labelled cysteine peptide fold change” value was -0.036.

On to “HECTD1_Q9ULT8_1944_NCSQLIAAYK (UniProt Q9ULT8)”, for which the “probe-labelled cysteine peptide fold change” value came out at 0.0693.

With “HEXB_P07686_360_CWESNPK (UniProt P07686)”, the “probe-labelled cysteine peptide fold change” value worked out at 0.0207.

For “HK2_P52789_813_AILQHLGLESTCDDSIIVK (UniProt P52789)”, the “probe-labelled cysteine peptide fold change” value worked out at 0.148.

As for “HERC2_O95714_1201_ERDDHEELAWPGIMESFFTGQNCR (UniProt O95714)”, the “probe-labelled cysteine peptide fold change” value is -0.0033.

Regarding “HK1_P19367_375_LGVEPSDDDCVSVQHVCTIVSFR (UniProt P19367)”, the “probe-labelled cysteine peptide fold change” value is -0.149.

Turning to “HECTD1_Q9ULT8_1855_LLQLSCNGNVK (UniProt Q9ULT8)”, the “probe-labelled cysteine peptide fold change” value was 0.169.

Regarding “HECTD1_Q9ULT8_762_LTVGNWSLTCLK (UniProt Q9ULT8)”, the “probe-labelled cysteine peptide fold change” value came out at 0.094.

As for “HLA-E_P13747_185_AYLEDTCVEWLHK (UniProt P13747)”, the “probe-labelled cysteine peptide fold change” value came to 0.212.

As to “HINT1_P49773_38_CLAFHDISPQAPTHFLVIPK (UniProt P49773)”, the “probe-labelled cysteine peptide fold change” value was -0.0538.

On to “HLA-A_P01891_363_GGSYSQAASSDSAQGSDVSLTACK (UniProt P01891)”, for which the “probe-labelled cysteine peptide fold change” value is -0.0167.

With “HERC2_O95714_4517_DESGANRDCYLLSPAAR (UniProt O95714)”, the “probe-labelled cysteine peptide fold change” value was 0.256.

Take “HECTD1_Q9ULT8_187_MEPQDSSLEICVESLSSLLK (UniProt Q9ULT8)”: the “probe-labelled cysteine peptide fold change” value was -0.114.

With “HEXIM2_Q96MH2_80_TQSPGGCSAEAVLAR (UniProt Q96MH2)”, the “probe-labelled cysteine peptide fold change” value is -0.497.

Take “HINT3_Q9NQE9_73_QDPGTELLHCENEDLICFK (UniProt Q9NQE9)”: the “probe-labelled cysteine peptide fold change” value was -0.178.

“HCFC2_Q9Y5Z7_125_VKPHPPPSGLPPCPR (UniProt Q9Y5Z7)”: the “probe-labelled cysteine peptide fold change” value came to 0.0361.

With “HLA-C_P04222_345_GGSCSQAASSNSAQGSDESLIACK (UniProt P04222)”, the “probe-labelled cysteine peptide fold change” value was determined as 0.041.

Regarding “HIP1_O00291_906_GKFEELMVCSHEIAASTAQLVAASK (UniProt O00291)”, the “probe-labelled cysteine peptide fold change” value was 0.00218.

For “HERC2_O95714_664_CGSQFSIALTK (UniProt O95714)”, the “probe-labelled cysteine peptide fold change” value is -0.00167.
